The values that follow come from US11156615B2 (priority 2015, dated 2021).

To fix the notation:
B1: ttGGBP182C.2.5: affinity-tuning mutant, 182C background, SEQ ID NO: 92 (protein)
chain: MKQLNIGVAIYKFDDTFMTGVRNAMTAEAQGKAKLNMVDSQNSQPTQNDQVDLFITKKMNALAINPVDRTAAGTIIDKAKQANIPVVFFNKEPLPEDMKKWDKVYYVGAKAEQSGILQGQIMADYWKAHPEADKNHDGVMQYVMLMGEPGQQDAILRTQYSIQTVKDAGIKVQELAKDYANCDRVTAHDKMAAWLSSFGDKIEAVFANNDDMALGAIEALKSAGYFTGNKYIPVVGVDATAPGIQAIKDGTLLGTVLNDAKNQAKATFNIAYELAQGITPTKDNIGYDITDGKYVWIPYKKITKDNISDAEQGGSHHHHHH
modifications: ttGGBP182C.2.5 (affinity-tuning mutant, 182C background (Table 6) with signal peptide replaced with M and GGSHHHHHH at C-terminus)
B2: ttGGBP182C.2.6: affinity-tuning mutant, 182C background, SEQ ID NO: 93 (protein)
chain: MKQLNIGVAIYKFDDTFMTGVRNAMTAEAQGKAKLNMVDSQNSQPTQNDQVDLFITKKMNALAINPVDRTAAGTIIDKAKQANIPVVFFNKEPLPEDMKKWDKVYYVGAKAEQSGILQGQIMADYWKAHPEADKNHDGVMQYVMLMGEPGNQDAILRTQYSIQTVKDAGIKVQELAKDYANCDRVTAHDKMAAWLSSFGDKIEAVFANNDDMALGAIEALKSAGYFTGNKYIPVVGVDATAPGIQAIKDGTLLGTVLNDAKNQAKATFNIAYELAQGITPTKDNIGYDITDGKYVWIPYKKITKDNISDAEQGGSHHHHHH
modifications: ttGGBP182C.2.6 (affinity-tuning mutant, 182C background (Table 6) with signal peptide replaced with M and GGSHHHHHH at C-terminus)
B3: ttGGBP182C.2.7: affinity-tuning mutant, 182C background, SEQ ID NO: 94 (protein)
chain: MKQLNIGVAIYKFDDTFMTGVRNAMTAEAQGKAKLNMVDSQNSQPTQNDQVDLFITKKMNALAINPVDRTAAGTIIDKAKQANIPVVFFNKEPLPEDMKKWDKVYYVGAKAEQSGILQGQIMADYWKAHPEADKNHDGVMQYVMLMGEPGFQDAILRTQYSIQTVKDAGIKVQELAKDYANCDRVTAHDKMAAWLSSFGDKIEAVFANNDDMALGAIEALKSAGYFTGNKYIPVVGVDATAPGIQAIKDGTLLGTVLNDAKNQAKATFNIAYELAQGITPTKDNIGYDITDGKYVWIPYKKITKDNISDAEQGGSHHHHHH
modifications: ttGGBP182C.2.7 (affinity-tuning mutant, 182C background (Table 6) with signal peptide replaced with M and GGSHHHHHH at C-terminus)
B4: ttGGBP182C.9: affinity-tuning mutant, 182C background, SEQ ID NO: 103 (protein)
chain: MKQLNIGVAIYKFDNTFMTGVRNAMTAEAQGKAKLNMVDSQNSQPTQNDQVDLFITKKMNALAINPVDRTAAGTIIDKAKQANIPVVFFNREPLPEDMKKWDKVYYVGAKAEQSGILQGQIMADYWKAHPEADKNHDGVMQYVMLMGQPGHQDAILRTQYSIQTVKDAGIKVQELAKDYANCDRVTAHDKMAAWLSSFGDKIEAVFANNDDMALGAIEALKSAGYFTGNKYIPVVGVDATAPGIQAIKDGTLLGTVLNDAKNQAKATFNIAYELAQGITPTKDNIGYDITDGKYVWIPYKKITKDNISDAEQGGSHHHHHH
modifications: ttGGBP182C.9 (affinity-tuning mutant, 182C background (Table 6) with signal peptide replaced with M and GGSHHHHHH at C-terminus)
B5: ttGGBP182C.2.8: affinity-tuning mutant, 182C background, SEQ ID NO: 95 (protein)
chain: MKQLNIGVAIYKFDNTFMTGVRNAMTAEAQGKAKLNMVDSQNSQPTQNDQVDLFITKKMNALAINPVDRTAAGTIIDKAKQANIPVVFFNKEPLPEDMKKWDKVYYVGAKAEQSGILQGQIMADYWKAHPEADKNHDGVMQYVMLMGEPGHQDAILRTQYSIQTVKDAGIKVQELAKDYANCDRVTAHDKMAAWLSSFGDKIEAVFANNDDMALGAIEALKSAGYFTGNKYIPVVGVDATAPGIQAIKDGTLLGTVLNDAKNQAKATFNIAYELAQGITPTKDNIGYDITDGKYVWIPYKKITKDNISDAEQGGSHHHHHH
modifications: ttGGBP182C.2.8 (affinity-tuning mutant, 182C background (Table 6) with signal peptide replaced with M and GGSHHHHHH at C-terminus)
B6: ttGGBP182C.5: affinity-tuning mutant, 182C background, SEQ ID NO: 99 (protein)
chain: MKQLNIGVAIYKFDDTFMTGVRNAMTAEAQGKAKLNMVDSQNSQPTQNDQVDLFITKKMNALAINPVDPTAAGTIIDKAKQANIPVVFFNREPLPEDMKKWDKVYYVGAKAEQSGILQGQIMADYWKAHPEADKNHDGVMQYVMLMGQPGHPDAILRTQYSIQTVKDAGIKVQELAKDYANCDRVTAHDKMAAWLSSFGDKIEAVFANNDDMALGAIEALKSAGYFTGNKYIPVVGVDATAPGIQAIKDGTLLGTVLNDAKNQAKATFNIAYELAQGITPTKDNIGYDITDGKYVWIPYKKITKDNISDAEQGGSHHHHHH
modifications: ttGGBP182C.5 (affinity-tuning mutant, 182C background (Table 6) with signal peptide replaced with M and GGSHHHHHH at C-terminus)
B7: ttGGBP182C.4: affinity-tuning mutant, 182C background, SEQ ID NO: 98 (protein)
chain: MKQLNIGVAIYKFDDTFMTGVRNAMTAEAQGKAKLNMVDSQNSQPTQNDQVDLFITKKMNALAINPVDRTAAGTIIDKAKQANIPVVFFNREPLPEDMKKWDKVYYVGAKAEQSGILQGQIMADYWKAHPEADKNHDGVMQYVMLMGEPGHQDAILRTQYSIQTVKDAGIKVQELAKDYANCDRVTAHDKMAAWLSSFGDKIEAVFANNDDMALGAIEALKSAGYFTGNKYIPVVGVDATAPGIQAIKDGTLLGTVLNDAKNQAKATFNIAYELAQGITPTKDNIGYDITDGKYVWIPYKKITKDNISDAEQGGSHHHHHH
modifications: ttGGBP182C.4 (affinity-tuning mutant, 182C background (Table 6) with signal peptide replaced with M and GGSHHHHHH at C-terminus)
B8: ttGGBP182C.6: affinity-tuning mutant, 182C background, SEQ ID NO: 100 (protein)
chain: MKQLNIGVAIYKFDDNFMTGVRNAMTAEAQGKAKLNMVDSQNSQPTQNDQVDLFITKKMNALAINPVDRTAAGTIIDKAKQANIPVVFFNREPLPEDMKKWDKVYYVGAKAEQSGILQGQIMADYWKAHPEADKNHDGVMQYVMLMGQPGHQDAILRTQYSIQTVKDAGIKVQELAKDYANCDRVTAHDKMAAWLSSFGDKIEAVFANNDAMALGAIEALKSAGYFTGNKYIPVVGVDATAPGIQAIKDGTLLGTVLNDAKNQAKATFNIAYELAQGITPTKDNIGYDITDGKYVWIPYKKITKDNISDAEQGGSHHHHHH
modifications: ttGGBP182C.6 (affinity-tuning mutant, 182C background (Table 6) with signal peptide replaced with M and GGSHHHHHH at C-terminus)
B9: ttGGBP182C.8: affinity-tuning mutant, 182C background, SEQ ID NO: 102 (protein)
chain: MKQLNIGVAIYKFDDTFMTGVRNAMTAEAQGKAKLNMVDSQNSQPTQNDQVDLFITKKMNALAINPVDRTAAGTIIDKAKQANIPVVFFNKEPLPEDMKKWDKVYYVGAKAEQSGILQGQIMADYWKAHPEADKNHDGVMQYVMLMGKPGHQDAILRTQYSIQTVKDAGIKVQELAKDYANCDRVTAHDKMAAWLSSFGDKIEAVFANNDDMALGAIEALKSAGYFTGNKYIPVVGVDATAPGIQAIKDGTLLGTVLNDAKNQAKATFNIAYELAQGITPTKDNIGYDITDGKYVWIPYKKITKDNISDAEQGGSHHHHHH
modifications: ttGGBP182C.8 (affinity-tuning mutant, 182C background (Table 6) with signal peptide replaced with M and GGSHHHHHH at C-terminus)

This series in a line: Glucose-dependent fluorescence emission intensity spectra of conjugates (Nanodrop3300). The conditions noted are these: Acrylodan conjugate; Nanodrop, room temperature. Type of series: biochemical. From the text:
Semi-synthetic FRSs were engineered by site-specifically attaching thiol-reactive, environmentally sensitive fluorophores that respond to ligand-mediated conformational changes. Identification of FRS candidates that are useful for sensing applications comprises three steps: • 1. Cysteine scan. Mutant glucose-binding proteins containing single cysteines are constructed for site-specific attachment of thiol-reactive fluorophores. […] Candidate positions fall into three classes: endosteric, replacing a residue that contacts the ligand directly; peristeric, located at the rim of the binding site; allosteric (Marvin et al. 1997 Proc Natl Acad Sci USA, 94, 4366-71; Marvin 1998 J Am Chem Soc, 120, 7-11), located outside the binding site at sites that undergo local structural changes in concert with the hinge-bending motion. • 2. Fluorophore screening. Thiol-reactive, environmentally sensitive fluorophores are attached to each cysteine mutant prepared in step 1. • 3. Evaluation of the glucose-mediated change of all the fluorescent conjugates prepared in step 2. Responses to ligand binding in which there is both a change in fluorescence emission intensity and spectral shape was essential for chemometric applications, because such changes enable ratiometric measurements. Changes in spectral shape typically are accompanied by a shift in the wavelength of the emission intensity maxima. Three classes of fluorescent responses are possible: • i. No response. • ii. Monochromatic response (emission intensity increases or decreases without a change in spectral shape) • iii.
Consider B1, for which the “Emission wavelength λ1 (optimal ratiometry wavelength)” value came to 477 nm and the “Emission wavelength λ2 (optimal ratiometry wavelength)” value is listed as 542 nm.
For B2, in that order: 475 nm and 537 nm.
For B3 the same measures were 475 nm and 545 nm.
For B4, in that order: 475 nm and 540 nm.
In the case of B5, the “Emission wavelength λ1 (optimal ratiometry wavelength)” value turned out to be 474 nm and the “Emission wavelength λ2 (optimal ratiometry wavelength)” value worked out at 542 nm.
For the molecule B6, the “Emission wavelength λ1 (optimal ratiometry wavelength)” value is given as 477 nm and the “Emission wavelength λ2 (optimal ratiometry wavelength)” value was 535 nm.
As to B7, the “Emission wavelength λ1 (optimal ratiometry wavelength)” value is on record as 475 nm and the “Emission wavelength λ2 (optimal ratiometry wavelength)” value came out at 542 nm.
For B8, in that order: 472 nm and 530 nm.
For B9, in that order: 475 nm and 545 nm.
